According to patent publication US20100040621A1, “Novel polpeptide and use thereof” (TAKEDA PHARMACEUTICAL COMPANY LIMITED, priority 2005, published 2010):

Columns and labels:
[1] = RIA quantification of tissue levels of NERP in rat tissues; conditions: endogenous immunoreactive peptide, male Wistar rat
[2] = RIA of immunoreactive NERP in human plasma; conditions: endogenous

Substance	Tissue level, Brain [1] [pmol/g wet weight]	Tissue level, Colon Ascending [1] [pmol/g wet weight]	Tissue level, Colon Descending [1] [pmol/g wet weight]	Tissue level, Duodenum [1] [pmol/g wet weight]	Tissue level, Heart Atrium [1] [pmol/g wet weight]	Tissue level, Heart Ventricle [1] [pmol/g wet weight]	Tissue level, Hypothalamus [1] [pmol/g wet weight]	Tissue level, Ileum [1] [pmol/g wet weight]	Tissue level, Jejunum [1] [pmol/g wet weight]	Tissue level, Liver [1] [pmol/g wet weight]	Tissue level, Lung [1] [pmol/g wet weight]	Tissue level, Pancreas [1] [pmol/g wet weight]	Tissue level, Pituitary Anterior [1] [pmol/g wet weight]	Tissue level, Pituitary Posterior [1] [pmol/g wet weight]	Tissue level, Spleen [1] [pmol/g wet weight]	Tissue level, Stomach Antrum [1] [pmol/g wet weight]	Tissue level, Stomach Fundus [1] [pmol/g wet weight]	plasma levels of immunoreactive NERP in human [2] [fmol/mL]
NERP-2: VGF-derived peptide; human, rat and mouse sequences are SEQ ID NO: 7, 8 and 9; rat form an amidated 38-amino acid peptide (QAEATRQAAAQEERLADLASDLLLQYLLQGGARQRGLG; Neuroendocrine regulatory peptide-2; UniProt O15240 310-347, looked up) [VGF-derived peptide; rat form an amidated 38-amino acid peptide]	4.14 ± 0.25	0.23 ± 0.03	3.94 ± 0.30	0.38 ± 0.13	0.21 ± 0.04	0.03 ± 0.01	12.87 ± 1.50	0.18 ± 0.01	0.26 ± 0.02	0.05 ± 0.01	0.07 ± 0.01	0.05 ± 0.01	3.11 ± 0.36	14.45 ± 1.91	0.06 ± 0.01	0.26 ± 0.05	0.30 ± 0.03	10.8 ± 1.0
NERP-1: VGF-derived peptide; human, rat and mouse sequences are SEQ ID NO: 4, 5 and 6; rat form an amidated 25-amino acid peptide (RPESALLGGSEAGERLLQQGLAQVEA; Neuroendocrine regulatory peptide-1; UniProt O15240 281-306, looked up) [VGF-derived peptide; rat form an amidated 25-amino acid peptide]	6.60 ± 0.32	1.98 ± 0.35	7.14 ± 0.46	0.97 ± 0.04	0.69 ± 0.18	0.11 ± 0.01	15.59 ± 1.21	1.63 ± 0.26	1.11 ± 0.12	0.15 ± 0.05	0.22 ± 0.02	0.15 ± 0.02	5.99 ± 0.40	34.73 ± 2.82	0.28 ± 0.04	0.48 ± 0.12	0.79 ± 0.02	9.8 ± 1.1
